These results are taken from US20210046154A1.

The chains behind the UniProt entries cited, without tags or fusion partners.
UniProt P29351: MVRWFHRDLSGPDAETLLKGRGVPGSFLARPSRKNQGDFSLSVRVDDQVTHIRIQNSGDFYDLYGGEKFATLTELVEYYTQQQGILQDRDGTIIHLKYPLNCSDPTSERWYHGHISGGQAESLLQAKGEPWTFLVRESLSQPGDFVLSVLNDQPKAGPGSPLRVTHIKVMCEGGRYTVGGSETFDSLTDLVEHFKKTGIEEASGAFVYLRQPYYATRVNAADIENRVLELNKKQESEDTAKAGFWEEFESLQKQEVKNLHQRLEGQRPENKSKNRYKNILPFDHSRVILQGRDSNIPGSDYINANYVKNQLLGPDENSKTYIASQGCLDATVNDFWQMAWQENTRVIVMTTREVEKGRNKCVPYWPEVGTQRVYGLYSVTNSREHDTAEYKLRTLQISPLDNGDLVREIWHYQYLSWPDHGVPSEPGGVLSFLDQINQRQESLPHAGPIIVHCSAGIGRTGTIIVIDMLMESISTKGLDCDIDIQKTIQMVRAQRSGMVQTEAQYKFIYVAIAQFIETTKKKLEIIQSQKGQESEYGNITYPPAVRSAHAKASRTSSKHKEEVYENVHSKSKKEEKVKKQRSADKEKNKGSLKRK

For assay [1], the target named is T1, mouse Siglec G (mouse) (UniProt Q80ZE3).
T1 sequence (looked up): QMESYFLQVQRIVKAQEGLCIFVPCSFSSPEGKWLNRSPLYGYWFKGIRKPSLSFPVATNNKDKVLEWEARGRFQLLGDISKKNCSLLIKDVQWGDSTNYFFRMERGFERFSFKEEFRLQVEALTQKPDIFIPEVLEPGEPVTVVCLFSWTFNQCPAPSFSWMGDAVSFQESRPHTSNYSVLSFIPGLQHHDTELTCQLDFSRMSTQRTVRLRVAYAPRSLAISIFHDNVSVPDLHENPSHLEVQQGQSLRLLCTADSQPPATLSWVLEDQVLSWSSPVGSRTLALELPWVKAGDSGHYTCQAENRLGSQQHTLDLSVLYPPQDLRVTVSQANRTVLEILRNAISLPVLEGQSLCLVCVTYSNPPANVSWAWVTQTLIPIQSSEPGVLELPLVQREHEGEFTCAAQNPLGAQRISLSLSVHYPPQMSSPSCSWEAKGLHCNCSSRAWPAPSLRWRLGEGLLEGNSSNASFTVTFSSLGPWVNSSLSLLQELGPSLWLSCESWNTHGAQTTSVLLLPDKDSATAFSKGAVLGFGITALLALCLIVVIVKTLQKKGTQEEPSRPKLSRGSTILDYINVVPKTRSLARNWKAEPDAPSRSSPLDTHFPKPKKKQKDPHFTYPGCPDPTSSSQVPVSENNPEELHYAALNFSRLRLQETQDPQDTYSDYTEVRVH
Description: Co-immunoprecipitation: Siglec G precipitated from CD24-/- spleen cells stimulated for 30 minutes with 1 µg/ml CD24Fc, control Fc or PBS; Western blot with anti-SHP-1. (A western blot detects proteins with antibodies after separation by electrophoresis.)

Assay [2] deals with SHP-1 (UniProt P29351). Description: co-immunoprecipitation of Siglec G from CD24-/- spleen cells stimulated with CD24Fc, probed with anti-SHP-1.
Assay [3] concerns the target SHP-1 (UniProt P29351). Description: co-immunoprecipitation of Siglec G from CD24-/- spleen cells stimulated with 1 µg/ml CD24Fc, probed with anti-SHP-1 (FIG. 5C).

No constants are given. Whether binding was seen depends on the method and setting. Binding seen in cells or lysates may run through a third protein. Some results given as binding are weak or reduced against the parent protein; the word gives no strength.

For the molecule “SHP-1 (from UniProt P29351 1-595) (enzyme)”, the binding entry in assay [1] is “binds”.

B1: mouse Siglec G (receptor, UniProt Q80ZE3 18-688, looked up)
chain: T1 sequence (looked up)
On to B1, for which the binding result in assay [2] and in assay [3] was “binds” throughout.
